Data as given in the supplement of paper PMC10849652.
The list shows a part of the results.

Protein sequences, listed by entry. Tags and fused reporters are not part of them. Lines headed by an entry give the natural chain unless they say otherwise; changes in a name come on top.
UniProt P17535: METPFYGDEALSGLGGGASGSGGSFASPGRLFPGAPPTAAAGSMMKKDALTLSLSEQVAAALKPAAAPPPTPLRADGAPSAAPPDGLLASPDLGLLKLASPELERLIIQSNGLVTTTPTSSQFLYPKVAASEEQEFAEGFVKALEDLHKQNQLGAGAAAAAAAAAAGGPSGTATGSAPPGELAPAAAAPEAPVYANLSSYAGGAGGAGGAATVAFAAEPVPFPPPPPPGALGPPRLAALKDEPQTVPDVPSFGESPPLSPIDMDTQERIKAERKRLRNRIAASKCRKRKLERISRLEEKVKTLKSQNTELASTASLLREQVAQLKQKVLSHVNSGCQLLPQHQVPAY
UniProt O14686, whole entry, looked up: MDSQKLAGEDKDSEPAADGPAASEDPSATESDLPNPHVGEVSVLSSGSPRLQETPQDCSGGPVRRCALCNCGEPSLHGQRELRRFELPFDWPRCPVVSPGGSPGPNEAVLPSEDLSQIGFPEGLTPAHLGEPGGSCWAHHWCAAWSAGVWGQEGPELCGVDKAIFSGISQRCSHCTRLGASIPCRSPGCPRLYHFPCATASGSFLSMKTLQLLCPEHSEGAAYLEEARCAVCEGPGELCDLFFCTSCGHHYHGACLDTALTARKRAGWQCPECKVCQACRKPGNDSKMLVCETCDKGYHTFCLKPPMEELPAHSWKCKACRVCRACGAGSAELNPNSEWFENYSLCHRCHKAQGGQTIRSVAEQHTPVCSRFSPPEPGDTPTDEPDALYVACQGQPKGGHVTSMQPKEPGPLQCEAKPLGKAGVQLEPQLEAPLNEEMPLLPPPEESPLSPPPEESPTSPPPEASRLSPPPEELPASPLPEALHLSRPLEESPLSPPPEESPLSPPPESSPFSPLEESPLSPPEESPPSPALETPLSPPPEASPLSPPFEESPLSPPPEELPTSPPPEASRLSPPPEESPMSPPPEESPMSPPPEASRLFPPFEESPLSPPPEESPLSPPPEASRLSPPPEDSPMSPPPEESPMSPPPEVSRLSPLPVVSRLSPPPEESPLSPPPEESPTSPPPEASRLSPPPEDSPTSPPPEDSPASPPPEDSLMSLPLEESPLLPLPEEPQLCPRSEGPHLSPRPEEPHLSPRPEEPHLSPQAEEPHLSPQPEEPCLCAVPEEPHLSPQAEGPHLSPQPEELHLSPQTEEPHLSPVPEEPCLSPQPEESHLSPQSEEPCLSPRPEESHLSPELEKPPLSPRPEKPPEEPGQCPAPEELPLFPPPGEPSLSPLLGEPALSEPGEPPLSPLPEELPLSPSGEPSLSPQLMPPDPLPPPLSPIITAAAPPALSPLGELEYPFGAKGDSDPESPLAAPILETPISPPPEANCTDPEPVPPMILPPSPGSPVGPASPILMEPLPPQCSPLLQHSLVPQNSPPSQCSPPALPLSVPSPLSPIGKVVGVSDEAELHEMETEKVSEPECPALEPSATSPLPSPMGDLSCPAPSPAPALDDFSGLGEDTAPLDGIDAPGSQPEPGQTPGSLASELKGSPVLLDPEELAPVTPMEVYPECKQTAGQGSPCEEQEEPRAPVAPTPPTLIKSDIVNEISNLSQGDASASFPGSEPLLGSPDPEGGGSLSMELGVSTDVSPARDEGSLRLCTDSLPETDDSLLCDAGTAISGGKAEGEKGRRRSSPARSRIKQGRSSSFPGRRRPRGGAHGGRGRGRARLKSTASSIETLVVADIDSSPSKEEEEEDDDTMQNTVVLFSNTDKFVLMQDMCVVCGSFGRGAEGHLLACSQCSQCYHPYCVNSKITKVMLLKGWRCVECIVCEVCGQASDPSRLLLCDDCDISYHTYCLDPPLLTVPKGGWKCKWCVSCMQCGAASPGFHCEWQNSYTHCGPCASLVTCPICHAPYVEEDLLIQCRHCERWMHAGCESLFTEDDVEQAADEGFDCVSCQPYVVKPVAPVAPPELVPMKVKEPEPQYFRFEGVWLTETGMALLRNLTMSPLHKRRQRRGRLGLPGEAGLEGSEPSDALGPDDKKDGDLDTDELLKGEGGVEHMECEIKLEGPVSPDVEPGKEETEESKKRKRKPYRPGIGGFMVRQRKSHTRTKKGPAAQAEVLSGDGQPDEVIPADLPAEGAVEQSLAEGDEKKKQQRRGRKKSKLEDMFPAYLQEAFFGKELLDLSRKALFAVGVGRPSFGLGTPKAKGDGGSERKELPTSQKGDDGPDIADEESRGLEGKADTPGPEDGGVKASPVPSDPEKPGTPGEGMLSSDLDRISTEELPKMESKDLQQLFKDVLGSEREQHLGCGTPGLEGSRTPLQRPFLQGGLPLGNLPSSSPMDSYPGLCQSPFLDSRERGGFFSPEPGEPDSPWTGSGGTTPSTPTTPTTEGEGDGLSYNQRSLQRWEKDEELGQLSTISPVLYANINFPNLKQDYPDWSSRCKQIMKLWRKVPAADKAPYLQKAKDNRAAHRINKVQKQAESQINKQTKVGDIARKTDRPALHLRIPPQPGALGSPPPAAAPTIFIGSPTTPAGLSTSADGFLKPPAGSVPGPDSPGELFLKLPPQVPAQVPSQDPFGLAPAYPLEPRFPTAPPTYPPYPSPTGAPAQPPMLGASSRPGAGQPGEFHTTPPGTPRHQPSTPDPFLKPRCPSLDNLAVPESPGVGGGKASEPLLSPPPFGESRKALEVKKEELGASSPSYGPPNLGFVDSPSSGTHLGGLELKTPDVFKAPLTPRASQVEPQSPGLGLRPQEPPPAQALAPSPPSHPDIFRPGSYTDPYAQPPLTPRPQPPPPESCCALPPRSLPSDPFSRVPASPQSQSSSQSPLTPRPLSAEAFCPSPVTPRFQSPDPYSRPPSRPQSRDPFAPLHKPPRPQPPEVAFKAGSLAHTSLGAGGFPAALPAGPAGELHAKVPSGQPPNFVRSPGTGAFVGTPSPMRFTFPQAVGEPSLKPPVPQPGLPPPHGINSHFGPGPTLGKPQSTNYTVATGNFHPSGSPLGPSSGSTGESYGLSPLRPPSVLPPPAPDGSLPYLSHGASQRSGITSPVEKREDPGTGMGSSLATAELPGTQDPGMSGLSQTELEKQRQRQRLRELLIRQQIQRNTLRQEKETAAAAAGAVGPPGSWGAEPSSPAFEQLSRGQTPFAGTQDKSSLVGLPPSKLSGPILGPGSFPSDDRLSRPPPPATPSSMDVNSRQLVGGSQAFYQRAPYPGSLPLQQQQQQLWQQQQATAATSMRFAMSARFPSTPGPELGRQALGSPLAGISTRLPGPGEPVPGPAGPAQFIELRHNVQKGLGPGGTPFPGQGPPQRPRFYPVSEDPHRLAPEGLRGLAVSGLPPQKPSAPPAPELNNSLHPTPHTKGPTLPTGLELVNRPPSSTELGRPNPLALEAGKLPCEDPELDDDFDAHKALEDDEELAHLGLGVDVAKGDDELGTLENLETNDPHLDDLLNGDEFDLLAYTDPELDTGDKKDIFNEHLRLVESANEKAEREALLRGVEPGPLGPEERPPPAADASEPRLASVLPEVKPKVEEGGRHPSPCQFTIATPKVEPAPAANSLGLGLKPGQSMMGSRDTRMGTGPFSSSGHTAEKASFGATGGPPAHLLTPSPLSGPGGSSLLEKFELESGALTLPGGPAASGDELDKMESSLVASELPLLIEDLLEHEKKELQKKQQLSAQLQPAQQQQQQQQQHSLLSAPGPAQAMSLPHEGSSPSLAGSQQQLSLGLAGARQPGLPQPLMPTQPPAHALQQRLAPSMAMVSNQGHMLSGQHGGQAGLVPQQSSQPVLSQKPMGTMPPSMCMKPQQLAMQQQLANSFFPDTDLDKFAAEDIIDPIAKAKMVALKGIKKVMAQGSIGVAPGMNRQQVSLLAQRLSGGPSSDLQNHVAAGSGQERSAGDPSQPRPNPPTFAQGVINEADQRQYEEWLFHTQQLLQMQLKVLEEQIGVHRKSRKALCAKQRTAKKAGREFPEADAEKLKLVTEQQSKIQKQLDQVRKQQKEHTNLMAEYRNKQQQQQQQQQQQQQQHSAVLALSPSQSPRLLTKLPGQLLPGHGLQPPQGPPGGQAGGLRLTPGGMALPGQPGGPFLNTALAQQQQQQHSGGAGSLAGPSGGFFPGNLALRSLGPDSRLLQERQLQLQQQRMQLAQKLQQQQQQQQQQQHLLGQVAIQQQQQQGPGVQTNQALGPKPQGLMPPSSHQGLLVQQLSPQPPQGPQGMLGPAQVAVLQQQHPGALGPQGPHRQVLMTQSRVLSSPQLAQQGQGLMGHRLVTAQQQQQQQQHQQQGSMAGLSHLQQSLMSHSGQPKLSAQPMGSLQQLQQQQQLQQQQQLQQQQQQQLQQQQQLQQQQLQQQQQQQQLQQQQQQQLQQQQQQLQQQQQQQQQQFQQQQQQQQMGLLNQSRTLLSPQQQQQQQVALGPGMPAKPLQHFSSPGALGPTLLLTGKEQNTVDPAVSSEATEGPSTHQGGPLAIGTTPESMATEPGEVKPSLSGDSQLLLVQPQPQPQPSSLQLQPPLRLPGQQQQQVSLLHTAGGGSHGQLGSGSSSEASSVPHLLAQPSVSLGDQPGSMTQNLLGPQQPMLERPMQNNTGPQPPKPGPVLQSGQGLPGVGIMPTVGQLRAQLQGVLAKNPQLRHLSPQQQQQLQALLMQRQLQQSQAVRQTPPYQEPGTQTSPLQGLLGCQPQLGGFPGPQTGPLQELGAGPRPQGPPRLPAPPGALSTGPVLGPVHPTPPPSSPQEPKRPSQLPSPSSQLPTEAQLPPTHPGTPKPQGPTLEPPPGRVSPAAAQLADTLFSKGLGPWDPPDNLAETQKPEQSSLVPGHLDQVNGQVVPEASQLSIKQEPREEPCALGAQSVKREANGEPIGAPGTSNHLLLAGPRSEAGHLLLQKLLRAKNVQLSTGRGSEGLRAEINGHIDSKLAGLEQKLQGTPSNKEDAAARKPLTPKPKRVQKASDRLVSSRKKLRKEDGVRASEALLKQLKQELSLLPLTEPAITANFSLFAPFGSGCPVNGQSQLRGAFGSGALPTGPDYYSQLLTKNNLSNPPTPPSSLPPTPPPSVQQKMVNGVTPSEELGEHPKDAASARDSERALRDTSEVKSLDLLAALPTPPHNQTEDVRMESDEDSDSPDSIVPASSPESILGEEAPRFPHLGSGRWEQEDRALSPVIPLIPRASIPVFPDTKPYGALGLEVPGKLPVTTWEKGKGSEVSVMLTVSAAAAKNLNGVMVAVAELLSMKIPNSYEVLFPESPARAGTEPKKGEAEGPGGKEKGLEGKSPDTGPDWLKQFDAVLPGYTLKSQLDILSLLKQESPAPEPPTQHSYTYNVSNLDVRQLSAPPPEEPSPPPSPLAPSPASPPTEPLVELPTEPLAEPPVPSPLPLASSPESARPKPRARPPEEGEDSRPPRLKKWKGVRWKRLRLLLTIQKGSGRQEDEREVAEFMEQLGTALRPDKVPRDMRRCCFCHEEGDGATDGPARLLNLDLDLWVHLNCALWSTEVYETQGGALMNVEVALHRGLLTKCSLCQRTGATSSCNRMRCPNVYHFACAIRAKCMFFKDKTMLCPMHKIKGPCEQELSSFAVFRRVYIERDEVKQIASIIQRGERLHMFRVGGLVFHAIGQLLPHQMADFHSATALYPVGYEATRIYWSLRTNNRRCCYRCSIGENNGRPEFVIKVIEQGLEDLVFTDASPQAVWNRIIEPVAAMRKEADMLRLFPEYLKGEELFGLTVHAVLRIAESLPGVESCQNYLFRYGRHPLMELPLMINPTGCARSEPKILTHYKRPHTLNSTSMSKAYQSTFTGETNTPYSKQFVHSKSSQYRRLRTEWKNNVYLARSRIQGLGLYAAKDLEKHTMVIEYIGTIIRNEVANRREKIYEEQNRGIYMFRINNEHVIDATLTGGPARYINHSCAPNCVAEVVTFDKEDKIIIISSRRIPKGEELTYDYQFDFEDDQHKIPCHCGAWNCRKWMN
UniProt Q96A73: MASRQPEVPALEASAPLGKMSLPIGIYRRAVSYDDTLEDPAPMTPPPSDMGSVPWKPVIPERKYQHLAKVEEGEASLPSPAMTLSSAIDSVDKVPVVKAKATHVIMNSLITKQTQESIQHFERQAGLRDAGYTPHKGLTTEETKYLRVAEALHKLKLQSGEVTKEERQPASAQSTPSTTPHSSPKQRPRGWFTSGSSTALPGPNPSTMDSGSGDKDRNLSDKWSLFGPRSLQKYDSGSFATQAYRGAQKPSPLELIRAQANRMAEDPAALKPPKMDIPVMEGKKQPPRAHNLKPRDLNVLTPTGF
UniProt P57682: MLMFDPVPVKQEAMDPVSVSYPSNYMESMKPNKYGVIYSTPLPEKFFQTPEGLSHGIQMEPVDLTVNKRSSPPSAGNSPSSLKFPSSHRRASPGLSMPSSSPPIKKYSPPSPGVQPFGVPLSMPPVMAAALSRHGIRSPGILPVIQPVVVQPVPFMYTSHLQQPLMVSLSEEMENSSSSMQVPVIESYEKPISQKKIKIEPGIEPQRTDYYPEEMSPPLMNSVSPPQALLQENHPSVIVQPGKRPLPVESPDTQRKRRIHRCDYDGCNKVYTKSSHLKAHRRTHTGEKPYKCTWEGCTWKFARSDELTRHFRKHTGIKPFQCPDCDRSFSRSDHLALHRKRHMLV

Legend:
Experiment in all cases: log2 fold change, soluble protein after heating vs DMSO (PISA); higher = thermal stabilisation; K562 cells, 10 uM, 30 min; active = over 0.2 and 3.5 SD of the protein, either way, in both replicates (recomputed)
[1] = compound: COC1=CC=C(C=C1)CN2C=CC3=C2C=C(C=C3)C(=O)NO
How it was run: (§1)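 K562 cells at 2×10^6 cells/mL were treated for 30 min with 10 μM compound, and aliquots were heated for 3 min over 48°C-58°C before pooling. Extraction used PBS with 0.5% NP-40 at 4°C, and soluble protein was the supernatant after 21,000xg for 90 min, measured by TMTpro 16plex LC-MS/MS with channel sums equalised. Thermal stability values, relative to control samples and from duplicates, are log2 fold changes.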

filanesib = compound: CON(C)C(=O)N1N=C(c2cc(F)ccc2F)S[C@@]1(CCCN)c1ccccc1 [filanesib]
How it was run: as §1

zotarolimus = compound: CO[C@H]1C[C@@H]2CC[C@@H](C)[C@@](O)(O2)C(=O)C(=O)N2CCCC[C@H]2C(=O)O[C@H]([C@H](C)C[C@@H]2CC[C@H](n3cnnn3)[C@H](OC)C2)CC(=O)[C@H](C)/C=C(\C)[C@@H](O)[C@@H](OC)C(=O)[C@H](C)C[C@H](C)/C=C/C=C/C=C/1C [zotarolimus]
How it was run: as §1

idasanutlin = compound: COc1cc(C(=O)O)ccc1NC(=O)[C@@H]1N[C@@H](CC(C)(C)C)[C@](C#N)(c2ccc(Cl)cc2F)[C@H]1c1cccc(Cl)c1F [idasanutlin]
How it was run: as §1

alisertib = compound: COc1cc(Nc2ncc3c(n2)-c2ccc(Cl)cc2C(c2c(F)cccc2OC)=NC3)ccc1C(=O)O [alisertib]
How it was run: as §1

[2] = compound: COc1cc2nc(-c3cc(F)ccc3O)nc(N[C@@H]3CNC[C@H]3C(C)(C)O)c2cc1OC
How it was run: as §1

gefitinib = compound: COc1cc2ncnc(Nc3ccc(F)c(Cl)c3)c2cc1OCCCN1CCOCC1 [gefitinib]
How it was run: as §1

[3] = compound: COc1cccc2cc(-c3nc([C@H]4CC[C@H](C(=O)O)CC4)n4ncnc(N)c34)[nH]c12
How it was run: as §1

lapatinib = compound: CS(=O)(=O)CCNCc1ccc(-c2ccc3ncnc(Nc4ccc(OCc5cccc(F)c5)c(Cl)c4)c3c2)o1 [lapatinib]
How it was run: as §1

pictilisib = compound: CS(=O)(=O)N1CCN(Cc2cc3nc(-c4cccc5[nH]ncc45)nc(N4CCOCC4)c3s2)CC1 [pictilisib]
How it was run: as §1

[4] = compound: CS(=O)(=O)c1ccc(-c2cnc(N)c(C(=O)Nc3ccccc3)n2)cc1
How it was run: as §1

crizotinib = compound: C[C@@H](Oc1cc(-c2cnn(C3CCNCC3)c2)cnc1N)c1c(Cl)ccc(F)c1Cl [crizotinib]
How it was run: as §1

[5] = compound: C[C@@H]1COCCN1C2=NC(=NC(=C2)C3(CC3)S(=O)(=O)C)C4=C5C=CNC5=CC=C4
How it was run: as §1

[6] = compound: C[C@H](C1=CC=C(C=C1)C(=O)NC2=C3C=CNC3=NC=C2)N
How it was run: as §1

duvelisib = compound: C[C@H](Nc1ncnc2nc[nH]c12)c1cc2cccc(Cl)c2c(=O)n1-c1ccccc1 [duvelisib]
How it was run: as §1

gandotinib = compound: Cc1cc(Nc2cc(CN3CCOCC3)c3nc(C)c(Cc4ccc(Cl)cc4F)n3n2)n[nH]1 [gandotinib]
How it was run: as §1

tozasertib = compound: Cc1cc(Nc2cc(N3CCN(C)CC3)nc(Sc3ccc(NC(=O)C4CC4)cc3)n2)n[nH]1 [tozasertib]
How it was run: as §1

[7] = compound: Cc1cc(SCc2sc(-c3ccc(C(F)(F)F)cc3)nc2C)ccc1OCC(=O)O
How it was run: as §1

doramapimod = compound: Cc1ccc(-n2nc(C(C)(C)C)cc2NC(=O)Nc2ccc(OCCN3CCOCC3)c3ccccc23)cc1 [doramapimod]
How it was run: as §1

ispinesib = compound: Cc1ccc(C(=O)N(CCCN)[C@@H](c2nc3cc(Cl)ccc3c(=O)n2Cc2ccccc2)C(C)C)cc1 [ispinesib]
How it was run: as §1

Measured: log2 fold change

KATNB1 (UniProt Q9BVA0)
inactive: [1] -0.069 | filanesib 0.01 | zotarolimus -0.033 | idasanutlin -0.018 | alisertib -0.041 | [2] 0.001 | gefitinib 0.003 | [3] -0.067 | lapatinib 0.048 | pictilisib -0.034 | [4] 0.017 | crizotinib -0.109 | [5] -0.087 | [6] 0.053 | duvelisib 0.034 | gandotinib -0.111 | tozasertib 0.004 | [7] 0.011 | doramapimod 0.046 | ispinesib -0.028

KIF23 (UniProt Q02241)
inactive: [1] 0.009 | filanesib 0.043 | zotarolimus 0.056 | idasanutlin 0.096 | alisertib 0.118 | [2] 0.047 | gefitinib -0.033 | [3] 0.022 | lapatinib -0.072 | pictilisib -0.043 | [4] 0.036 | crizotinib -0.165 | [5] -0.005 | [6] -0.087 | duvelisib -0.056 | gandotinib -0.031 | tozasertib 0.03 | [7] 0.076 | doramapimod -0.069 | ispinesib -0.205

KBTBD8 (UniProt Q8NFY9)
inactive: [1] -0.129 | filanesib -0.057 | zotarolimus 0.009 | idasanutlin -0.122 | alisertib -0.048 | [2] -0.002 | gefitinib 0.156 | [3] -0.057 | lapatinib -0.12 | pictilisib -0.258 | [4] 0.018 | crizotinib -0.15 | [5] 0.039 | [6] 0.001 | duvelisib -0.009 | gandotinib -0.088 | tozasertib 0.018 | [7] 0 | doramapimod 0.132 | ispinesib -0.066

JUND (UniProt P17535)
inactive: [1] -0.089 | filanesib 0.065 | zotarolimus -0.026 | idasanutlin -0.116 | alisertib -0.087 | [2] -0.029 | gefitinib -0.075 | [3] -0.028 | lapatinib 0.041 | pictilisib -0.032 | [4] 0.019 | crizotinib 0.044 | [5] -0.049 | [6] 0.111 | duvelisib 0.122 | gandotinib 0.008 | tozasertib -0.087 | [7] -0.028 | doramapimod 0.05 | ispinesib -0.017

KMT2D isoform 3 (UniProt O14686)
inactive: [1] -0.129 | filanesib 0.131 | zotarolimus 0.034 | idasanutlin 0.135 | alisertib -0.111 | [2] 0.096 | gefitinib -0.003 | [3] 0.057 | lapatinib -0.016 | pictilisib 0.024 | [4] 0.093 | crizotinib 0 | [5] 0.06 | [6] 0.064 | duvelisib -0.025 | gandotinib 0.095 | tozasertib 0.099 | [7] 0.063 | doramapimod 0.048 | ispinesib 0.06

KIAA1522 isoform 2 (UniProt Q9P206)
inactive: [1] 0.085 | filanesib 0.399 | zotarolimus 0.025 | idasanutlin 0.655 | alisertib -0.099 | [2] -0.08 | gefitinib 0.066 | [3] -0.092 | lapatinib 0.037 | pictilisib -0.017 | [4] 0.017 | crizotinib -0.097 | [5] -0.278 | [6] -0.125 | duvelisib -0.084 | gandotinib 0.01 | tozasertib -0.016 | [7] 0.061 | doramapimod 0.104 | ispinesib -0.196

KDM5C (UniProt P41229)
inactive: [1] -0.144 | filanesib -0.032 | zotarolimus 0.068 | idasanutlin -0.078 | alisertib 0.234 | [2] -0.04 | gefitinib 0.074 | [3] -0.229 | lapatinib 0.015 | pictilisib 0.187 | [4] 0.043 | crizotinib 0.009 | [5] 0.068 | [6] 0.03 | duvelisib 0.03 | gandotinib 0.109 | tozasertib 0.146 | [7] 0.03 | doramapimod 0.067 | ispinesib 0.022

KPNA3 (UniProt O00505)
inactive: [1] 0.027 | filanesib -0.028 | zotarolimus 0.031 | idasanutlin 0.068 | alisertib 0.121 | [2] -0.099 | gefitinib 0.008 | [3] 0.005 | lapatinib 0.011 | pictilisib 0.007 | [4] 0.003 | crizotinib -0.068 | [5] -0.005 | [6] -0.025 | duvelisib 0.048 | gandotinib -0.033 | tozasertib -0.023 | [7] 0.136 | doramapimod -0.048 | ispinesib -0.036

KCTD9 (UniProt Q7L273)
inactive: [1] 0.024 | filanesib 0.012 | zotarolimus -0.015 | idasanutlin -0.015 | alisertib -0.103 | [2] 0.013 | gefitinib 0.064 | [3] -0.026 | lapatinib -0.002 | pictilisib 0.015 | [4] 0.022 | crizotinib 0.036 | [5] -0.052 | [6] -0.115 | duvelisib 0.095 | gandotinib 0.015 | tozasertib 0.026 | [7] -0.013 | doramapimod -0.02 | ispinesib 0.114

KCTD3 (UniProt Q9Y597)
inactive: [1] -0.018 | filanesib 0.05 | zotarolimus -0.045 | idasanutlin 0.104 | alisertib 0.006 | [2] 0.102 | gefitinib 0.002 | [3] 0.016 | lapatinib 0 | pictilisib -0.039 | [4] 0.031 | crizotinib -0.013 | [5] 0.069 | [6] 0.147 | duvelisib 0.065 | gandotinib 0.084 | tozasertib -0.049 | [7] -0.047 | doramapimod -0.006 | ispinesib -0.093

KAZN isoform 3 (UniProt Q674X7)
inactive: [1] -0.095 | filanesib -0.05 | zotarolimus -0.153 | idasanutlin 0.011 | alisertib 0.065 | [2] -0.037 | gefitinib 0.028 | [3] 0.017 | lapatinib 0.015 | pictilisib -0.021 | [4] -0.082 | crizotinib -0.009 | [5] -0.078 | [6] -0.076 | duvelisib 0.031 | gandotinib -0.058 | tozasertib -0.033 | [7] 0.003 | doramapimod 0.005 | ispinesib 0.036

Fetched one by one from the entries so far, 2 records:
KCTD3 (UniProt Q9Y597)
inactive: [1] -0.018 | filanesib 0.05 | zotarolimus -0.045 | idasanutlin 0.104 | alisertib 0.006 | [2] 0.102 | gefitinib 0.002 | [3] 0.016 | lapatinib 0 | pictilisib -0.039 | [4] 0.031 | crizotinib -0.013 | [5] 0.069 | [6] 0.147 | duvelisib 0.065 | gandotinib 0.084 | tozasertib -0.049 | [7] -0.047 | doramapimod -0.006 | ispinesib -0.093

KPNA3 (UniProt O00505)
inactive: [1] 0.027 | filanesib -0.028 | zotarolimus 0.031 | idasanutlin 0.068 | alisertib 0.121 | [2] -0.099 | gefitinib 0.008 | [3] 0.005 | lapatinib 0.011 | pictilisib 0.007 | [4] 0.003 | crizotinib -0.068 | [5] -0.005 | [6] -0.025 | duvelisib 0.048 | gandotinib -0.033 | tozasertib -0.023 | [7] 0.136 | doramapimod -0.048 | ispinesib -0.036

(cont.)

KLHL11 (UniProt Q9NVR0)
inactive: [1] 0.044 | filanesib -0.053 | zotarolimus 0.071 | idasanutlin -0.081 | alisertib -0.174 | [2] -0.008 | gefitinib 0.054 | [3] -0.045 | lapatinib 0.042 | pictilisib 0.034 | [4] 0.071 | crizotinib -0.079 | [5] 0.045 | [6] 0.008 | duvelisib 0.38 | gandotinib -0.017 | tozasertib -0.188 | [7] 0.092 | doramapimod -0.014 | ispinesib 0.073

KIF5B (UniProt P33176)
inactive: [1] 0.03 | filanesib -0.032 | zotarolimus 0.04 | idasanutlin -0.052 | alisertib -0.066 | [2] 0.01 | gefitinib -0.005 | [3] -0.01 | lapatinib 0.008 | pictilisib 0.017 | [4] 0.029 | crizotinib -0.007 | [5] 0.055 | [6] -0.046 | duvelisib 0.019 | gandotinib -0.068 | tozasertib -0.009 | [7] 0.024 | doramapimod 0.001 | ispinesib 0.083

KIAA1191 (UniProt Q96A73)
inactive: [1] 0.01 | filanesib -0.048 | zotarolimus -0.007 | idasanutlin -0.016 | alisertib -0.059 | [2] 0.036 | gefitinib 0.024 | [3] 0.199 | lapatinib 0.018 | pictilisib 0.024 | [4] 0.113 | crizotinib -0.058 | [5] 0.081 | [6] -0.02 | duvelisib 0.14 | gandotinib -0.142 | tozasertib -0.002 | [7] -0.034 | doramapimod -0.008 | ispinesib 0.04

KLF3 (UniProt P57682)
inactive: [1] -0.055 | filanesib 0.004 | zotarolimus -0.052 | idasanutlin 0.048 | alisertib 0.052 | [2] -0.016 | gefitinib 0.051 | [3] -0.043 | lapatinib 0.04 | pictilisib 0.105 | [4] -0.032 | crizotinib 0.021 | [5] -0.034 | [6] 0.227 | duvelisib -0.293 | gandotinib 0.029 | tozasertib 0.017 | [7] 0.109 | doramapimod 0.027 | ispinesib -0.05
